Reference: patent US20130071417A1 (GOVERNING COUNCIL OF THE UNIVERSITY OF TORONTO, published 2013)
These are yes or no findings as the source states them, for the method shown. For some assays here: In cells and extracts the contact can be indirect. Some results given as binding are weak or reduced against the parent protein; the word gives no strength. For some assays here: Tags and fused reporters may be left off the sequences shown. Each block holds one molecule with its values, some of them ahead of it.

Protein sequences, listed by entry. Tags and fused reporters are not part of them. Lines headed by an entry give the natural chain unless they say otherwise; changes in a name come on top.
UniProt P04386: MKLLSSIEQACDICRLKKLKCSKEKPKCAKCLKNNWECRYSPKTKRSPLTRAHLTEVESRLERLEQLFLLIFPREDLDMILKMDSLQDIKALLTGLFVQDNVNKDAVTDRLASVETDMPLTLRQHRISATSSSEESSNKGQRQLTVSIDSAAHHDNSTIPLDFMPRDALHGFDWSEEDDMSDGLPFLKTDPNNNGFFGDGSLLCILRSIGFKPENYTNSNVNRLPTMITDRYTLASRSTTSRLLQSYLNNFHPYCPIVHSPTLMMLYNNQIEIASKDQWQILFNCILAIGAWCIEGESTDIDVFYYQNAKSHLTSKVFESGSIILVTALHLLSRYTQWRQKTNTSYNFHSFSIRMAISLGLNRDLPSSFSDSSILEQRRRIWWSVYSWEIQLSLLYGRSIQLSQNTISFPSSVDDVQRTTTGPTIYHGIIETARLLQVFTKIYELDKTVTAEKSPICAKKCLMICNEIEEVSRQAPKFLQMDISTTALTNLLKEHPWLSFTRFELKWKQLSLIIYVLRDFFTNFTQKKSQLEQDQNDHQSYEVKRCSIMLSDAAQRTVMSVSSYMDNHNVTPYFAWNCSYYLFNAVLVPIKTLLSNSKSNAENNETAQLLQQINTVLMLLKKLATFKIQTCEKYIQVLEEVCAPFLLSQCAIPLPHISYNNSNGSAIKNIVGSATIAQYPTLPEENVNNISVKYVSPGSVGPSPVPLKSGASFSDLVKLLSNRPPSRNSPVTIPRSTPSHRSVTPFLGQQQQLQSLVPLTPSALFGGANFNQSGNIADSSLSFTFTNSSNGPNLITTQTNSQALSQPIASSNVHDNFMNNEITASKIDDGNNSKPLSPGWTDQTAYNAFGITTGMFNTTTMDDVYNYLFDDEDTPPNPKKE

Columns and labels:
[1] = molecular target: untagged rCEA N domain (cleaved rCEA N, residues 1-132) (human) (UniProt P06731); assay: ELISA; untagged rCEA N coated, His-tagged module in solution, anti-His HRP detection
[2] = molecular target: CEA A3B3 domain Prey fusion construct (GAL4 activation domain fused to CEA IgC-like A3B3 domain) (human) (UniProt P06731); assay: yeast two-hybrid, growth on SD lacking Trp, Leu and His
[3] = molecular target: CEA N domain Prey fusion protein (GAL4 activation domain fused to CEA IgV-like N domain) (human) (UniProt P06731); assay: as above
[4] = molecular target: CEA A3B3 domain Prey fusion construct (GAL4 activation domain fused to CEA IgC-like A3B3 domain) (human) (UniProt P06731); assay: yeast two-hybrid, growth on selective medium
[5] = molecular target: T1, His-tagged rCEA N domain (human); assay: pull-down with magnetic Ni-NTA beads (figure legend; modules named in paragraph 102)
T1 sequence: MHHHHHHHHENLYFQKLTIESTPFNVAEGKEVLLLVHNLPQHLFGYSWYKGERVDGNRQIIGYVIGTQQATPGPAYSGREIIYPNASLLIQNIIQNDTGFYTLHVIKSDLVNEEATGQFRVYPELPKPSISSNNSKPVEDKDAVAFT

[6] = molecular target: His-tagged rCEA A3 domain (human) (UniProt P06731); assay: as above
[7] = molecular target: His-tagged rCEA A3B3 domain (residues 445-656, C-terminal His-tag) (human) (UniProt P06731); assay: as above
[8] = molecular target: His-tagged rCEA A3B3 domain (residues 445-656, C-terminal His-tag) (human) (UniProt P06731); assay: co-immunoprecipitation with Col1 on protein A magnetic beads; 1 µM of each module
[9] = molecular target: T1, His-tagged rCEA N domain (human); assay: pull-down with magnetic Ni-NTA beads coated with His-tagged module
[10] = molecular target: His-tagged rCEA A3 domain (human) (UniProt P06731); assay: as above
[11] = molecular target: His-tagged rCEA A3B3 domain (residues 445-656, C-terminal His-tag) (human) (UniProt P06731); assay: as above

binding [1]: binds
Molecule: His-tagged rCEA A3 domain (from UniProt P06731 499-591)

binding [2]: binds | binding [3]: binds | binding [4]: binds
Molecule: CEA N domain Bait fusion protein (GAL4 DNA-binding domain fused to CEA IgV-like N domain) (from UniProt P04386 1-147; P06731 35-166)

binding [5]: binds | binding [6]: binds | binding [7]: binds | binding [8]: binds | binding [9]: binds | binding [10]: binds | binding [11]: binds
B1: untagged rCEA N domain (cleaved rCEA N, residues 1-132) (other)
chain: KLTIESTPFNVAEGKEVLLLVHNLPQHLFGYSWYKGERVDGNRQIIGYVIGTQQATPGPAYSGREIIYPNASLLIQNIIQNDTGFYTLHVIKSDLVNEEATGQFRVYPELPKPSISSNNSKPVEDKDAVAFT
notes: Made in E. coli, so it has no N-glycans; also called WT rCEA N domain; untagged WT rCEA N domain
